In PubChem BioAssay AID2685 (National Center for Advancing Translational Sciences (NCATS), 2010) one finds AC50 and cell number change data, which are given here for 41 compounds.

As usually defined, the AC50 is the concentration giving half of the maximal activity seen. The low end stands for greater potency, the high end for weaker potency.

The experiment can be described thus: qHTS Assay for Lipid Storage Modulators in Drosophila S3 Cells.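 As to cell number change: cells counted by Cell Tracker Red CMTPX staining in the red channel.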 The following applies: BODIPY lipid droplet fluorescence, 18-24 h; for cell number change: measured here: cell count max response, cells fed with added oleic acid. Summed up:
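Drosophila S3 cells got compounds at several concentrations plus oleic acid (400 uM solution). Laser-scanning cytometry with 488 nm excitation read lipid droplets at 500-530 nm and cells at 575-640 nm. Percent activity was relative to 20 uM Triacsin C.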
Background: qHTS replaces the single test concentration by a dilution series.

The mark [1] stands for this setting: measured here: cell number channel AC50, cells fed with added oleic acid.
Where [2] appears, read: measured here: lipid fluorescence (Fed channel) AC50, cells fed with added oleic acid.

SMILES strings stand for the structures. The list shows a part of the results. The main result of the screen is listed elsewhere. These columns were measured beside it and carry no call. The list favours compounds with an active or inconclusive main result. Words in brackets tell the shape of the fitted curve; partial curves, single points and poor fits give uncertain potencies.

Regarding `COc1ccc(S(=O)(=O)NCc2ccncc2)cc1NC(=O)c1ccc(Cl)cc1`, under setting [1], the AC50 was 2060 nM [rising, partial curve]. Regarding `CCOC(=O)c1c(C)n(CCNC(C)=O)c2ccc(O)cc12`, under setting [1], the AC50 is 2310 nM [rising, partial curve]. For the compound `Cc1nnc(SCc2ccccc2Cl)n1CC1CCCO1` (stereo not drawn), the cell number change is -30.2%. The AC50 under setting [2] was 25900 nM [falling, single point].

For `Cc1onc(-c2ccccc2Cl)c1C(=O)N1CCCCC1C` (stereo not drawn), the cell number change came out at 17.9%.

As for `Cc1cc(NC(=O)c2ccccc2)n(C(C)(C)C)n1`, the cell number change is -46.9%. The AC50 under setting [1] is 29100 nM [falling, single point]. In addition, under setting [2], the AC50 is 29100 nM [falling, single point].

Regarding `O=c1c2ccccc2sn1-c1ccccc1`, the cell number change was -88.1%. Under setting [1], the AC50 was 3660 nM [falling, full curve, poor fit]. Under setting [2], the AC50 was 25900 nM [falling, single point]. For the compound `O=S(=O)(c1ccc(Cl)cc1)N1CCN=C1SCc1cccc(Cl)c1`, the cell number change was 29.5%. Under setting [2], the AC50 is 16400 nM [rising, partial curve]. `O=C(O)/C=C/C(=O)N1CCN(c2ccc(F)cc2)CC1`: the cell number change was -21.9%. The AC50 under setting [2] is 1840 nM [falling, partial curve]. As to `O=C(O)c1nn(CC(=O)N2CCC(Cc3ccccc3)CC2)c(=O)c2ccccc12`, the cell number change is -9.21%. On the same count and under the same terms, then `Cc1cc(C)c2cc(C#N)c(SCC(=O)NCC3CCCO3)nc2c1` (stereo not drawn), with 6.03%; and `COc1cc(C=O)ccc1OC(=O)c1cccnc1`, with 15.2%. As for `N#Cc1ccc(C23CC4(C2)[C@H](CN(CC2CCCCC2)[C@@H]4c2ccccc2)C3c2ccc(Cl)nc2)cc1` (stereo partly drawn), the cell number change came to 30.8%. For the same compound, the AC50 under setting [2] is 29100 nM [rising, single point]. `Cc1ccccc1C1CC(c2ccc(F)cc2)Nc2nc(N)nn21` (stereo not drawn): the cell number change stood at 0.284%. Take `CCOc1ccc(-c2cccc(NS(=O)(=O)c3ccc([N+](=O)[O-])cc3)c2)nn1`: the cell number change was -75%. Under setting [1], the AC50 was 29100 nM [falling, single point]. Moreover, the AC50 under setting [2] is 820 nM [rising, full curve].

Turning to `CCOc1ccc(S(=O)(=O)NCCC(=O)N2CCN(Cc3ccccc3)CC2)cc1`, the AC50 under setting [2] is 6510 nM [falling, partial curve]. `O=C(Nc1ccc(NC(=O)c2cccs2)cc1)c1ccc2ccccc2c1`: the cell number change is 219%. For the compound `COc1ccc(OC)c(N(CC(=O)Nc2cccnc2)S(=O)(=O)c2ccccc2)c1`, the AC50 reads like this: under setting [1], 2060 nM [rising, partial curve]; under setting [2], 2060 nM [rising, partial curve].

As for `FC(F)Sc1ccc(NC(=S)NC2CCCC2)cc1`, the cell number change came out at 26.5%. With `O=C(NNC(=O)c1ccccc1Cl)c1ccco1`, the cell number change stood at 12.9%. Besides, the AC50 under setting [2] was 116 nM [falling, full curve, poor fit]. Regarding `O=C(CCC(=O)c1cccs1)NNC(=O)c1ccc(Cl)cc1`, the cell number change was -30.5%. In addition, the AC50 under setting [2] was 1840 nM [falling, partial curve].

Take `COc1cc(OC)c(C(=O)Nc2ccc(S(=O)(=O)Nc3ncccn3)cc2)cc1OC`: the cell number change was -2.57%. The AC50 under setting [2] was 16400 nM [rising, single point]. Consider `COc1ccc(OC)c(S(=O)(=O)Nc2ccc(F)cc2)c1`, for which the cell number change came to 23.4%. Under setting [2], the AC50 is 291 nM [rising, single point]. In the case of `COc1ccc(NC(=O)CO/N=C(\C)c2cccs2)cc1`, the cell number change was 26.8%. For the same compound, the AC50 under setting [2] was 130 nM [rising, full curve, poor fit]. Regarding `Cc1ccc(NCCC(=O)c2cccs2)cc1C`, the cell number change is -12%. Under setting [1], the AC50 is 259 nM [falling, single point]. Moreover, the AC50 under setting [2] was 1160 nM [falling, partial curve]. On to `O=C(Nc1ccc2c(c1)OCO2)C1CCN(C(=O)CSc2ncnc3ccccc23)CC1`, for which the cell number change stood at 32.5%. For the same compound, the AC50 under setting [1] is 16400 nM [rising, single point]. Take `CCN1CCN(CC(=O)N2N=CCC2c2ccccc2)CC1` (stereo not drawn): the cell number change is -10.2%. Further, under setting [1], the AC50 was 5.17 nM [falling, full curve, poor fit].

With `COc1cc(CN2CCN(C(=O)c3ccccc3F)CC2)cc(OC)c1OC`, the cell number change was -20.6%. Moreover, the AC50 under setting [2] was 4610 nM [falling, single point].

Turning to `Cc1ccc2nc(C)cc(C(=O)OCC(=O)Nc3c(C)n(C)n(-c4ccccc4)c3=O)c2c1`, the AC50 under setting [1] was 6510 nM [rising, partial curve, poor fit].

Turning to `CCOc1cc(C(=O)Nc2ccc3c4c(cccc24)C(=O)N3CC)cc(OCC)c1OCC`, the AC50 is 73.1 nM [rising, full curve] under setting [1] and 82 nM [rising, full curve, poor fit] under setting [2]. On to `COc1ccc(C(=O)/C(=C/O)N=Nc2ccc(F)cc2)cc1`, for which the AC50 under setting [2] was 73.1 nM [falling, full curve, poor fit]. For `COC(=O)c1cc2c(C)nn(-c3ccccc3)c2s1`, the AC50 was 517 nM [rising, partial curve] under setting [1] and 2590 nM [rising, full curve] under setting [2]. On to `COc1ccc(NC(=O)c2cc(-c3cccs3)on2)c(OC)c1`, for which the cell number change came out at 75.4%. Also, the AC50 under setting [1] was 18400 nM [rising, partial curve].

As to `COC(=O)c1ccc(C(=O)OC)c(NC(=O)CN2CCCCC2)c1`, the cell number change is 14.8%. On to `CC(C)CNS(=O)(=O)c1ccc(C(=O)Nc2ccc3c(c2)OCO3)cc1`, for which the cell number change was 11.3%.

On to `Cn1c(CNc2nc3ccccc3n2C)nc2ccccc21`, for which the cell number change was -11.2%. Besides, under setting [2], the AC50 was 18400 nM [falling, single point]. On to `CCOC(=O)c1cnc(SC)nc1Sc1ccc(Cl)cc1Cl`, for which the cell number change worked out at 34.5%. Also, the AC50 under setting [1] is 32600 nM [rising, single point]. As for `CCCCCN(C(=O)CCC(=O)OCC(=O)NCc1cccc(OC)c1)c1c(N)n(CCCC)c(=O)[nH]c1=O`, the cell number change came to 31.7%. The AC50 under setting [1] is 29100 nM [rising, single point]. Also, the AC50 under setting [2] was 20600 nM [rising, single point].

With `Cc1ccc(CSc2nc3ccccc3cc2C=O)cc1`, the cell number change was -19.9%. `N#CCSc1nc2cc(C(=O)N3CCCC3)ccc2c(=O)n1Cc1ccccc1`: the cell number change was found to be 0.446%. In addition, the AC50 under setting [1] was 4.61 nM [falling, full curve, poor fit]. Regarding `CC1CC(C)CN(C(=O)COC(=O)c2cc3ccccc3cc2O)C1` (stereo not drawn), the cell number change is -29.2%. Also, the AC50 under setting [1] is 580 nM [falling, full curve, poor fit]. Under setting [2], the AC50 was 2060 nM [falling, partial curve].

Turning to `COc1ccc(N2CCN(S(=O)(=O)c3ccc4c(c3)CCCC4)CC2)c([N+](=O)[O-])c1`, the cell number change was -19.9%. Moreover, the half-maximal activity concentration (AC50) under setting [1] was 92 nM [falling, full curve, poor fit].
